Results are given in words; binding and its absence hold for the method and conditions named. A result given as binding can be weak or reduced; the word gives no strength.
Biological target: T1, AtTT8 (Arabidopsis thaliana) (UniProt Q9FT81)
T1 sequence: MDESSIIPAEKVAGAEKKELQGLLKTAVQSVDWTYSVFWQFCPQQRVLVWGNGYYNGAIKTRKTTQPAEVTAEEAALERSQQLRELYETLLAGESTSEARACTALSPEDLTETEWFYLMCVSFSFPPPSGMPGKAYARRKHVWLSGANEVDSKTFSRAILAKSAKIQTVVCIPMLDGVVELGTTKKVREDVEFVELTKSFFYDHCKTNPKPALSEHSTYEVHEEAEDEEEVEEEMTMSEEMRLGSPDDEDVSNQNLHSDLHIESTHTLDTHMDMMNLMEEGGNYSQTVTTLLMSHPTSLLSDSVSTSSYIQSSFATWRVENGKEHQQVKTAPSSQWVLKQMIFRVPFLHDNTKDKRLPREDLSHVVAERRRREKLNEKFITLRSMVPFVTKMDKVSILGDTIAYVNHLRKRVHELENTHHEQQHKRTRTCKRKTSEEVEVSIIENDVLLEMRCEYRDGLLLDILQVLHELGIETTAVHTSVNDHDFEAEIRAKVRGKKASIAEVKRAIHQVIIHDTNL
Assay: two-hybrid; yeast AH109; AtTT8 in pGBKT7 (BD) as bait, BnaPAP2.A7 transcripts in pGADT7 (AD) as prey; colonies from SD/-Leu/-Trp tested on SD/-Leu/-Trp/-His/-Ade

binding | Substance
no binding | BnaPAP2.A7-395 encoded protein (Brassica napus)
no binding | BnaPAP2.A7-910 encoded protein (Brassica napus)
binds | BnaPAP2.A7-744 encoded protein (Brassica napus)

Source: publication PMC7466728
